Source: PubChem BioAssay AID504467 (National Center for Advancing Translational Sciences (NCATS), 2011)
About 7,700 (2.3%) of roughly 330,000 compounds were called active. Inconclusive results, whose numbers are uncertain, are shown with a selection of clear calls. Calls come from the whole dose curve; as a rule, active = well fitted inhibition curve with a large enough effect; inconclusive = small, poorly fitted or top-dose-only effect, or effect the other way; inactive = flat fitted curve, though single readings scatter. A potency beside an inconclusive call is a rough fit, not a confirmed value.

Assay: qHTS screen for small molecules that inhibit ELG1-dependent DNA repair in human embryonic kidney (HEK293T) cells expressing luciferase-tagged ELG1; note: nearly all actives have a fitted effect of over 55% in size
Conditions: HEK293T ELG1-luciferase reporter, luminescence, 16 h, DNA damage induced by 5-fluorouridine; activity change, negative = inhibition: at 46.1 µM (top of the series)
Procedure, shortened: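 HEK293T cells expressing luciferase-tagged ELG1 (2,000/well) received 5-Fluorouridine plus compound or DMSO for 16 hr at 37 °C. Luciferase was read by ONE-Glo luminescence after 30 min at room temperature.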
% is set by controls: 0 for no effect and ±100 for the full control effect; potency is the fitted concentration of half-maximal effect.

Row | Structure (SMILES) | Potency | activity change, negative = inhibition
1 | Cc1cc(C)n2nc(C(=O)Nc3nccs3)nc2n1 | inconclusive: 16.4 µM [activator, partial curve] | –
2 | COc1ccccc1NS(=O)(=O)c1ccc(C)c(NC(=O)NCCCl)c1 | inconclusive: 20.6 µM [inhibitor, single point] | –
3 | COc1ccc(NC(=S)N(CCCN2CCOCC2)C(C)c2cc3ccccc3o2)cc1 (centres undefined) | – | inactive: -5.68%
4 | COc1ccc(Cn2nnnc2C(c2cccs2)N2CCSCC2)cc1 (centres undefined) | inconclusive: 20.6 µM [inhibitor, partial curve] | –
5 | CC(=O)c1sc(NC(=O)c2cc(=O)c3ccccc3o2)nc1C | inconclusive: 7.3 µM [activator, partial curve] | –
6 | Cc1ccc(Nc2nc(N)c([N+](=O)[O-])c(N3CCOCC3)n2)cc1 | inconclusive: 14.6 µM [inhibitor, partial curve] | –
7 | COC(=O)/C(C#N)=C/c1c(N2CCN(c3ccccc3)CC2)nc2c(C)cccn2c1=O | inconclusive: 16.4 µM [inhibitor, single point] | –
8 | CN(C)CCCn1c2c(c(SCC(=O)Nc3ccc4c(c3)OCO4)nc1=O)CCCC2 | inconclusive: 8.2 µM [activator, partial curve] | –
9 | COc1ccc(S(=O)(=O)N2CCN=C2SCc2cccc(C)c2)cc1 | inconclusive: 32.6 µM [inhibitor, partial curve, poor fit] | –
10 | CCN(CC)S(=O)(=O)c1ccc(NCC2COc3ccccc3O2)c([N+](=O)[O-])c1 (centres undefined) | inconclusive: 18.4 µM [inhibitor, single point] | –
11 | Cc1ccsc1/C=N/NC(=O)CNC(=O)c1c(F)cccc1Cl | inconclusive: 29.1 µM [activator, partial curve, poor fit] | –
12 | CCC(C(=O)OCC(=O)c1ccc(OC)cc1OC)c1ccccc1 (centres undefined) | inconclusive: 18.3 µM [activator, partial curve, poor fit] | –
13 | O=C(Nc1nnc(C2CC2)s1)c1cc(S(=O)(=O)N2CCCCC2)ccc1N1CCOCC1 | – | inactive: -9.91%
14 | C[C@]12CC[C@@H]3c4ccc(O)cc4CC[C@H]3[C@@H]1CC[C@@H]2O | – | inactive: 4.64%
15 | Cc1ccc2nc3c(cc(C(=O)NCC4CCCO4)c(=N)n3CC3CCCO3)c(=O)n2c1 (centres undefined) | – | inactive: 7.71%
16 | COC(=O)c1sc(N)c(C(=O)OC)c1CSc1nnc(-c2ccccc2Cl)n1C | inconclusive: 18.4 µM [inhibitor, single point] | –
17 | Cc1cc2ncc(-c3cccs3)nc2cc1C | inconclusive: 2.31 µM [activator, partial curve] | –
18 | CCOc1ccc(-c2nnn(CC(=O)N3CCCC3)n2)cc1OCC | – | inactive: 15%
19 | COc1cc(OC)cc(C(=O)OCC(=O)Nc2cccc(C(C)=O)c2)c1 | inconclusive: 20.6 µM [inhibitor, single point] | –
20 | Fc1ccc(C2c3cccn3CCN2C(=S)Nc2cccc(F)c2)cc1 (centres undefined) | inconclusive: 23.1 µM [inhibitor, single point] | –
21 | CC1CCC(NC(=O)COC(=O)C2=NN(c3ccccc3)C(=O)CC2)CC1 (centres undefined) | – | inactive: -3.48%
22 | O=C(Cc1ccccc1Cl)NNC(=O)Nc1ccccc1 | – | inactive: -8.86%

Given with each value named: entries from further up
Cc1ccsc1/C=N/NC(=O)CNC(=O)c1c(F)cccc1Cl
  Potency: inconclusive: 29.1 µM [activator, partial curve, poor fit]
CCC(C(=O)OCC(=O)c1ccc(OC)cc1OC)c1ccccc1 (centres undefined)
  Potency: inconclusive: 18.3 µM [activator, partial curve, poor fit]

Additional compounds follow:

Row | Structure (SMILES) | Potency | activity change, negative = inhibition
23 | C=CCc1ccc(OCCOc2ccc(/C=N/n3cnnc3)cc2OCC)c(OC)c1 | inconclusive: 14.6 µM [inhibitor, partial curve, poor fit] | –
24 | COCCCNC(=O)c1ccc(N2CCCC2)c(NS(=O)(=O)c2ccc(C)cc2)c1 | inconclusive: 6.51 µM [inhibitor, single point] | –
25 | CCOC(=O)C1=C(CC)Nc2ccccc2N=C1NC(=O)c1ccc(OC)c(S(=O)(=O)N2CCCCC2C)c1 (centres undefined) | active: 23.1 µM | –
26 | COc1ccccc1/C=C/[C@@H]1C[C@H]2CN(Cc3cccc(Cl)c3)C(=O)[C@]23CCCN13 | inconclusive: 10.3 µM [inhibitor, partial curve, poor fit] | –
27 | CCOC(=O)C1=C(C)Nc2ccccc2N=C1NC(=O)c1oc2ccccc2c1COC | active: 11.2 µM | –
28 | O=S(=O)(Nc1cccc(CCc2ccccn2)c1)c1ccc(Cl)cc1 | inconclusive: 29.1 µM [inhibitor, single point] | –
29 | O=C(OCc1csc(Nc2ccccc2)n1)c1ccc(Cl)cc1 | – | inactive: 15.1%
30 | COc1ccc(NC(=O)c2ccc(S(=O)(=O)N3CC(C)OC(C)C3)cc2)cc1 (centres undefined) | inconclusive: 20.6 µM [inhibitor, partial curve] | –
31 | O=C(Nc1oc2ccccc2c(=O)c1-c1ccc(Cl)cc1)c1ccco1 | – | inactive: -2.81%
32 | Cc1[nH]c(-c2ccco2)nc1C(=O)O | – | inactive: 9.45%
33 | CCCCn1nc(C(=O)N2CCc3ccccc32)c2ccccc2c1=O | inconclusive: 25.9 µM [inhibitor, single point] | –
34 | O=C(N/N=C/c1ccoc1)c1ccccc1 | inconclusive: 16.4 µM [activator, partial curve] | –
35 | CCn1nc2cc(C(=O)NCCc3cccs3)ccc2c1OC | inconclusive: 5.17 µM [activator, partial curve] | –
36 | CN1CCN(c2ccc(NC(=O)c3ccc4c(c3)OCCO4)cc2Cl)CC1 | inconclusive: 2.59 µM [activator, full curve] | –
37 | CCC(C)c1ccc(NC(=O)C2CC2)cc1 (centres undefined) | inconclusive: 11.2 µM [activator, partial curve] | –
38 | COc1ccc(S(=O)(=O)N(C(=O)c2ccco2)c2cc3sc(=O)oc3c3ccccc23)cc1 | inconclusive: 18.4 µM [inhibitor, partial curve, poor fit] | –
39 | COc1ccc(NC(=O)Nc2cccc(C)n2)c(OC)c1 | inconclusive: 6.51 µM [activator, single point] | –
40 | N#C/C(=C\c1ccc(OCc2ccc(C(=O)O)cc2)cc1)C(=O)N1CCOCC1 | inconclusive: 0.461 µM [activator, partial curve] | –
41 | CC1CCN(C(=O)CCNC(=O)c2ccccc2Cl)CC1 | – | inactive: 8.8%
42 | COc1ccc(-c2nc(CSCC(=O)NCc3ccco3)c(C)o2)cc1 | – | inactive: 17.6%
43 | CCC(C)(C)C1CCC2(CC1)NC(=O)N(CC(=O)NCCc1ccc(OC)c(OC)c1)C2=O (centres undefined) | inconclusive: 23.1 µM [inhibitor, partial curve] | –
44 | CC(=O)N1CCCc2cc(S(=O)(=O)NCCC3=CCCCC3)ccc21 | – | inactive: -2.53%
